Measurements as given in the supplement of paper PMC10849652.
The other results are listed elsewhere or left out.

By UniProt entry, the sequences of proteins in these tests, tags left out. Where a name states a change or a piece, a line headed by the entry shows the natural chain unless it says otherwise.
UniProt P26368, whole entry, looked up: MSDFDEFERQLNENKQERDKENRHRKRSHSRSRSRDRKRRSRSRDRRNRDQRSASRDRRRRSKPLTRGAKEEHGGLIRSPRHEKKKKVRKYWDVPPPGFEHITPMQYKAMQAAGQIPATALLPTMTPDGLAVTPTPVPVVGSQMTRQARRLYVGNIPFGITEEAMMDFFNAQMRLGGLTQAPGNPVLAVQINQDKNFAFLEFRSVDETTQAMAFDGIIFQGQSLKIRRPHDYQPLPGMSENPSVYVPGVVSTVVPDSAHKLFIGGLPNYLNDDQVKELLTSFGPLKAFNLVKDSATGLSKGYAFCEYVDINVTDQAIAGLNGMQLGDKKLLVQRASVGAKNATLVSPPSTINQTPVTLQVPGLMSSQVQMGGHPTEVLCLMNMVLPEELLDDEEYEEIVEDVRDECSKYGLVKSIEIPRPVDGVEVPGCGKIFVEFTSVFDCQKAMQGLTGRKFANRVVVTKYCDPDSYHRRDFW
UniProt Q6ZT12: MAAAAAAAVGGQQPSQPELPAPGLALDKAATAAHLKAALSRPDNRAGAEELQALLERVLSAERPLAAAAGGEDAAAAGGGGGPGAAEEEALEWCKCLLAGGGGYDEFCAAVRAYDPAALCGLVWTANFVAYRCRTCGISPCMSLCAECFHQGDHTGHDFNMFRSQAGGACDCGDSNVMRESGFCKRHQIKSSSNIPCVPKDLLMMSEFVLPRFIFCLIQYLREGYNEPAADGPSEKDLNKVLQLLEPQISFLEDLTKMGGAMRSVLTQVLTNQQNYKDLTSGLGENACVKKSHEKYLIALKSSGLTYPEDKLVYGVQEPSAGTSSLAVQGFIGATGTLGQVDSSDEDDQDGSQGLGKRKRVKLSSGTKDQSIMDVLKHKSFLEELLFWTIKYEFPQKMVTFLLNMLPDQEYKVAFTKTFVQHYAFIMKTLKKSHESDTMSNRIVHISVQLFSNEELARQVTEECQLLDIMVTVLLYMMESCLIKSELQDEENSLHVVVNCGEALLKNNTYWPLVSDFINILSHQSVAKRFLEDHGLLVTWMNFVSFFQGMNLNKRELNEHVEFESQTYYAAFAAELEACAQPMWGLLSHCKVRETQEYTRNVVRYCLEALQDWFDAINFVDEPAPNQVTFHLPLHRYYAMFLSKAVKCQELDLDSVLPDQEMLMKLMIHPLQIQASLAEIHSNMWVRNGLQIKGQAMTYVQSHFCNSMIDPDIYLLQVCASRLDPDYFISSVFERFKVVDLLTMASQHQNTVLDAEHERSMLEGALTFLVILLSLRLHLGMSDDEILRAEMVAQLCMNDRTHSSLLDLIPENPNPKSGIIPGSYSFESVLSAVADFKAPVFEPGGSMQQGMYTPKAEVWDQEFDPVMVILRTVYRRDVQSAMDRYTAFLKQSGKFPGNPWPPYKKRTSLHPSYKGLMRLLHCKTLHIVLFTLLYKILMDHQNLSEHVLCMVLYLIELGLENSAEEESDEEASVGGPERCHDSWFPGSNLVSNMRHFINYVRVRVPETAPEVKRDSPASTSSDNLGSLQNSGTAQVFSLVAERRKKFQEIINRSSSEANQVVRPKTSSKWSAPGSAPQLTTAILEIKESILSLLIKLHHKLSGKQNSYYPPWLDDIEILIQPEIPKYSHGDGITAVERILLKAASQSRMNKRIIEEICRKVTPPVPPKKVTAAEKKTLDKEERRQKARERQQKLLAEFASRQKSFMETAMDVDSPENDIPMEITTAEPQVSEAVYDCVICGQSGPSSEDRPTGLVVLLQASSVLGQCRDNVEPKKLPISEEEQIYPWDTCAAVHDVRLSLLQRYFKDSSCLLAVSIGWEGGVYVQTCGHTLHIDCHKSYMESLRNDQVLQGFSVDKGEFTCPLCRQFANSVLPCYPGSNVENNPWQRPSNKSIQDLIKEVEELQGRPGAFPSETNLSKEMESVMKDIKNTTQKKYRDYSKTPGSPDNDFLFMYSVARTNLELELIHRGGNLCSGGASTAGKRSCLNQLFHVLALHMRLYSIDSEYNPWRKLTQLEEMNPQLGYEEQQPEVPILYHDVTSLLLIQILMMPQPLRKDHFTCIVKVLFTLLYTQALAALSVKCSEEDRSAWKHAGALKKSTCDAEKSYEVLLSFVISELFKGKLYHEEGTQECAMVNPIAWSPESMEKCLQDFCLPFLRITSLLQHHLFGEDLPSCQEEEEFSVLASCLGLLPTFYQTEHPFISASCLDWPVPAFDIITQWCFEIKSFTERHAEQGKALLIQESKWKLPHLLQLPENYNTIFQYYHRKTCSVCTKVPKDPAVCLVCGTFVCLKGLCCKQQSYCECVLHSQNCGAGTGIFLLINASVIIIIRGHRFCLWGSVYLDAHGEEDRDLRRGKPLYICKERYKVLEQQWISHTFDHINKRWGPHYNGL
UniProt Q15819: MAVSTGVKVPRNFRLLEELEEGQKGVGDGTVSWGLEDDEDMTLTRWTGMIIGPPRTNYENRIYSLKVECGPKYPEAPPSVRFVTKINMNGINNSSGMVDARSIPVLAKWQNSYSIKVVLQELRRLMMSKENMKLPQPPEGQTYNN
UniProt O94888: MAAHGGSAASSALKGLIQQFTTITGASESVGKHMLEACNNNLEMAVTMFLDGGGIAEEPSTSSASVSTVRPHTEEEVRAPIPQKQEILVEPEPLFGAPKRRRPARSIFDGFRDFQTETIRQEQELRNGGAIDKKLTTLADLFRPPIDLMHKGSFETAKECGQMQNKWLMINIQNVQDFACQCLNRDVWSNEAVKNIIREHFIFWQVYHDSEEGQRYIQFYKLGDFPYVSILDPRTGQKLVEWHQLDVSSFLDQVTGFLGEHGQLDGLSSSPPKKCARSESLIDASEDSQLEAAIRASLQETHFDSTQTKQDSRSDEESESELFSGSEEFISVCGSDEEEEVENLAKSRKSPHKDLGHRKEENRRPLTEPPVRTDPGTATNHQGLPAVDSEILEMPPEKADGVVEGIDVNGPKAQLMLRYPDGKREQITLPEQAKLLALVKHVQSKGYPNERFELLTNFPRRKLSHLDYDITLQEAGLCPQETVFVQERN
UniProt Q96CW5, whole entry, looked up: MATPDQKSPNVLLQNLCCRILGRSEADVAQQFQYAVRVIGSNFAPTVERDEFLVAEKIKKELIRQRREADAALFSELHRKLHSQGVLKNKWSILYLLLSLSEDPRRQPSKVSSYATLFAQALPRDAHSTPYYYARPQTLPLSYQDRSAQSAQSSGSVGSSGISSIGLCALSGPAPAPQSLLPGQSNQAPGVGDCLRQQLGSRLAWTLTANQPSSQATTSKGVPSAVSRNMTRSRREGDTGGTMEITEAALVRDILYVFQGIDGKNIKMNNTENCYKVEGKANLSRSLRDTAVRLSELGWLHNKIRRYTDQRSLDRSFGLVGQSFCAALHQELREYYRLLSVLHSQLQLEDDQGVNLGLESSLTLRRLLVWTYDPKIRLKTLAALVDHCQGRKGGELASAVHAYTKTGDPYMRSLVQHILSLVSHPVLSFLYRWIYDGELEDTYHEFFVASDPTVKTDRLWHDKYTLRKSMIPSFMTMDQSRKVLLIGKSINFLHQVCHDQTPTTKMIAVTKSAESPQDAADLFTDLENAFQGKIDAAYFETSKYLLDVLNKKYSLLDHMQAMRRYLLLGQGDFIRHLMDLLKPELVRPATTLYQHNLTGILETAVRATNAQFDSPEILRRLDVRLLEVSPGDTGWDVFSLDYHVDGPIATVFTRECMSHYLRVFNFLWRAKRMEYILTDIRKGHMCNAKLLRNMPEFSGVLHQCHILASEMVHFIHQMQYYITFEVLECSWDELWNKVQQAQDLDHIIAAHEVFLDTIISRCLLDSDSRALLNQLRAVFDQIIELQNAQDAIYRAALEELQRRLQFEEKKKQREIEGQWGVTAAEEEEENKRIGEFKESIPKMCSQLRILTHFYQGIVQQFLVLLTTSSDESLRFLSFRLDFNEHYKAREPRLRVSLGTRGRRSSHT
UniProt Q9NPD8: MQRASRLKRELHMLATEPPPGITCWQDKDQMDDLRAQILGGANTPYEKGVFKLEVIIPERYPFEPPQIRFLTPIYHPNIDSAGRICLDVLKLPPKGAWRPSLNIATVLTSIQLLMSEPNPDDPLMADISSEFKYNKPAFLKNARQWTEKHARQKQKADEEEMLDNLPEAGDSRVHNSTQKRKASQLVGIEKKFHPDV
UniProt Q969M7: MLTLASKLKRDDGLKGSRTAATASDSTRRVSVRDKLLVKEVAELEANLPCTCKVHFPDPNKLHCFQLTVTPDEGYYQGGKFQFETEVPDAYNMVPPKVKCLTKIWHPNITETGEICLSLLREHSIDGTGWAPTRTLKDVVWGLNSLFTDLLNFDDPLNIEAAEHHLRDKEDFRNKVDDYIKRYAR
UniProt Q8WVY7: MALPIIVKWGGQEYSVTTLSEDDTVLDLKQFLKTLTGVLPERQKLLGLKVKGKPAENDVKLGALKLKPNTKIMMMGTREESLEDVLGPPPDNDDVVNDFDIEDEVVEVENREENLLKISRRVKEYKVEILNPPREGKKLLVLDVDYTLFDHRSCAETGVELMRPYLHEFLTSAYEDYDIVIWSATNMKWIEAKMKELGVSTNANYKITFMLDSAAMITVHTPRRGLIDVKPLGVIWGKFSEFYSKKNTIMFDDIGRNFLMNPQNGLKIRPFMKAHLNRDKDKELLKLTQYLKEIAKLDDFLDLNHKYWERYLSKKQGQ
UniProt P51965: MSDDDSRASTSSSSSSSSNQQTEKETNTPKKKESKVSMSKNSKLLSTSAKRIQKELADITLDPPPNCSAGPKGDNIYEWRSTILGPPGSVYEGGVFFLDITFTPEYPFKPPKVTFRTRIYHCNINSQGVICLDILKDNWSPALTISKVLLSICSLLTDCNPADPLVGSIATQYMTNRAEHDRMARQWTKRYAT
UniProt P61088: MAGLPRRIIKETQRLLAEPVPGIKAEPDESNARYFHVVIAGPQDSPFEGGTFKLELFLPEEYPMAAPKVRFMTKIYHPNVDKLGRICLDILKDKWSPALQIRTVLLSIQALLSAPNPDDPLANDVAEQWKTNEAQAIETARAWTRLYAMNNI
UniProt Q13509, whole entry, looked up: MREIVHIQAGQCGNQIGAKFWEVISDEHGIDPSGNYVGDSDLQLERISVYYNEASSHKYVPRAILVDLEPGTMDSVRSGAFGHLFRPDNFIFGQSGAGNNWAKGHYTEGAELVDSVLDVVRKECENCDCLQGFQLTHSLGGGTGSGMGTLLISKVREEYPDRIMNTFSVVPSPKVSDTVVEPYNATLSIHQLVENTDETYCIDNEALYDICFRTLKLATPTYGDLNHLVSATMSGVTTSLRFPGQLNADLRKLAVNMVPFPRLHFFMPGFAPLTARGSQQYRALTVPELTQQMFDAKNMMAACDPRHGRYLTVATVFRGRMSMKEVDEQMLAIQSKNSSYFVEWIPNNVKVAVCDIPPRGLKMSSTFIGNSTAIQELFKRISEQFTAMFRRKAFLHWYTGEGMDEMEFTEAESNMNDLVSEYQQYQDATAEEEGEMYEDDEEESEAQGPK
UniProt O14933: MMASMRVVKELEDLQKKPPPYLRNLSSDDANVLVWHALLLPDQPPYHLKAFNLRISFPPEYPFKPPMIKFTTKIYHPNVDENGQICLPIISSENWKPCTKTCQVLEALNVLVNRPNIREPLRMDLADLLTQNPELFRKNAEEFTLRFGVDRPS
UniProt Q5JXB2: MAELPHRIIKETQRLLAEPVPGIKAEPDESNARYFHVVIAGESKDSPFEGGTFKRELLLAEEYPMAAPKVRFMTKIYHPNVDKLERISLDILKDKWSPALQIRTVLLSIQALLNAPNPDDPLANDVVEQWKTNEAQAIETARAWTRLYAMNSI
UniProt P04818: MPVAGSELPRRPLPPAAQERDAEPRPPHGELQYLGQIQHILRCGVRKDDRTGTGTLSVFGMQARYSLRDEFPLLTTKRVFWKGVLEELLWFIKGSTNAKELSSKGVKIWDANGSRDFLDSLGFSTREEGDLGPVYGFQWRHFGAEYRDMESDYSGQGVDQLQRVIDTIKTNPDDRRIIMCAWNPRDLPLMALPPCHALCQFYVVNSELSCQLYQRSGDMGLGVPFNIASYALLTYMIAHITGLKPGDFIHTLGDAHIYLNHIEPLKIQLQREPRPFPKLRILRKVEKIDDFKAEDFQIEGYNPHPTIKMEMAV

Key:
Test in all cases: log2 fold change, soluble protein after heating vs DMSO (PISA); higher = thermal stabilisation; K562 lysate, 10 uM; active = over 0.2 and 3.5 SD of the protein, either way, in both replicates (recomputed)
erlotinib = compound: C#Cc1cccc(Nc2ncnc3cc(OCCOC)c(OCCOC)cc23)c1 [erlotinib]
How it was run: (§1)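 The values are log-two fold changes in thermal stability compared with solvent controls and come from duplicates. They were obtained by TMTpro 16plex LC-MS/MS, with channel sums equalised, on the supernatant after 21,000xg for 90 min. That supernatant came from crude K562 extract at 1 mg/mL protein treated with 10 μM compound for 30 min, heated for 3 min across 48°C-58°C, pooled and brought to 0.5% NP-40 at 4°C.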

[1] = compound: C/C(=N\NC(=O)C1=CC(=CC=C1)S(=O)(=O)N2CCOCC2)/C3=C(C=CC(=C3)Cl)O
How it was run: as §1

[2] = compound: C1=CC(=CC=C1C2=NC3=C(N2)C=C(C=C3)C(=O)N)OC4=CC=C(C=C4)Cl
How it was run: as §1

[3] = compound: C1=CC2=C(C=CC(=C2)/C=C\3/C(=O)NC(=NCC4=CC=CS4)S3)N=C1
How it was run: as §1

[4] = compound: C1=CC2=NC=CN=C2C=C1/C=C/3\C(=O)NC(=O)S3
How it was run: as §1

[5] = compound: C1=CC=C(C=C1)C2=NC(=C(N2)C3=CC=NC=C3)C4=CC(=C(C=C4)Cl)O
How it was run: as §1

[6] = compound: C1=CC=C2C(=C1)C3=NNC4=CC=CC(=C43)C2=O
How it was run: as §1

[7] = compound: C1CCN(C1)C(=O)NC2=CC=CC(=C2)NC3=NC=C(C(=N3)NCCC4=CN=CN4)Br
How it was run: as §1

[8] = compound: C1CN(CCC1(CC2=CC=C(C=C2)Cl)N)C3=NC=NC4=C3C=CN4
How it was run: as §1

IRAK-1-4 Inhibitor I = compound: C1COCCN1CCN2C3=CC=CC=C3N=C2NC(=O)C4=CC(=CC=C4)[N+](=O)[O-] [IRAK-1-4 Inhibitor I]
How it was run: as §1

ibrutinib = compound: C=CC(=O)N1CCC[C@@H](n2nc(-c3ccc(Oc4ccccc4)cc3)c3c(N)ncnc32)C1 [ibrutinib]
How it was run: as §1

[9] = compound: CC(=O)c1cnc2ccc(-c3cc(Cl)c(O)c(Cl)c3)nc2c1N[C@H]1CC[C@H](CN(C)C)CC1
How it was run: as §1

ralimetinib = compound: CC(C)(C)Cn1c(N)nc2ccc(-c3[nH]c(C(C)(C)C)nc3-c3ccc(F)cc3)nc21 [ralimetinib]
How it was run: as §1

[10] = compound: CC(C)(O)CC(=O)NCCn1ccc2ncnc(Nc3ccc(Oc4cccc(C(F)(F)F)c4)c(Cl)c3)c21
How it was run: as §1

[11] = compound: CC(C)C1=C2N=C(C=C(N2N=C1)NCC3=CC=CC=C3)NCCCCCCN
How it was run: as §1

[12] = compound: CC1=C(C(CC(=O)N1)C2=CC=C(C=C2)C(F)(F)F)C(=O)NC3=C(C=C4C(=C3)C=NN4)F
How it was run: as §1

[13] = compound: CC1=C(C2=C(C=C1)C(=O)C3=CC=CC=C3N2CCCN)C
How it was run: as §1

[14] = compound: CC1=C(C=C(C=C1)NC(=O)C2=CC(=CC=C2)C(C)(C)C#N)NC3=CC4=C(C=C3)N=CN(C4=O)C
How it was run: as §1

[15] = compound: CC1=C(C=C(C=C1)NC(=O)C2=CC(=CC=C2)N(C)C)NC(=O)C3=CC=C(C=C3)O
How it was run: as §1

[16] = compound: CC1=CC=C(C=C1)SC2=C3C=C(SC3=CN=C2)C(=O)N
How it was run: as §1

Target	log2 fold change (erlotinib)	log2 fold change [1]	log2 fold change [2]	log2 fold change [3]	log2 fold change [4]	log2 fold change [5]	log2 fold change [6]	log2 fold change [7]	log2 fold change [8]	log2 fold change (IRAK-1-4 Inhibitor I)	log2 fold change (ibrutinib)	log2 fold change [9]	log2 fold change (ralimetinib)	log2 fold change [10]	log2 fold change [11]	log2 fold change [12]	log2 fold change [13]	log2 fold change [14]	log2 fold change [15]	log2 fold change [16]
UBAP2 (UniProt Q5T6F2)	inactive: -0.02	inactive: -0.02	inactive: 0.032	inactive: 0.01	inactive: 0.022	inactive: -0.159	inactive: 0.016	inactive: -0.009	inactive: 0.001	inactive: 0.016	inactive: 0.014	inactive: 0.009	inactive: -0.044	inactive: -0.067	inactive: 0.008	inactive: 0.03	inactive: 0.006	active: -0.474	inactive: -0.026	inactive: -0.019
U2AF2 (UniProt P26368)	inactive: 0.014	inactive: 0.065	inactive: -0.051	inactive: -0.005	inactive: -0.058	inactive: 0.025	inactive: 0.011	inactive: 0.016	inactive: 0.003	inactive: -0.011	inactive: 0.033	inactive: -0.019	inactive: 0.002	inactive: -0.004	inactive: 0.032	inactive: -0.02	inactive: 0.016	inactive: 0.011	inactive: -0.002	inactive: -0.008
UBR3 isoform 4 (UniProt Q6ZT12)	inactive: 0.016	inactive: 0.044	inactive: 0.016	inactive: 0.027	inactive: 0.005	inactive: 0.005	inactive: -0.07	inactive: -0.063	inactive: 0.032	inactive: -0.007	inactive: -0.002	inactive: -0.023	inactive: 0.107	inactive: -0.009	inactive: 0.005	inactive: 0.006	inactive: -0.055	inactive: -0.016	inactive: 0.013	inactive: 0.021
UBE2V2 (UniProt Q15819)	inactive: -0.026	inactive: 0.022	inactive: 0.036	inactive: -0.009	inactive: -0.033	inactive: 0.001	inactive: 0.006	inactive: 0.025	inactive: 0.017	inactive: 0.021	inactive: 0.064	inactive: 0.015	inactive: 0.004	inactive: 0.021	inactive: 0.005	inactive: -0.02	inactive: 0.033	inactive: -0.004	inactive: -0.006	inactive: -0.002
UBXN7 (UniProt O94888)	inactive: 0.001	inactive: 0.012	inactive: 0.004	inactive: -0.014	inactive: -0.003	inactive: 0.032	inactive: -0.017	inactive: -0.012	inactive: 0.011	inactive: 0.016	inactive: -0.009	inactive: -0.006	inactive: 0.007	inactive: -0.023	inactive: 0.009	inactive: 0.017	inactive: -0.004	inactive: -0.02	inactive: -0.001	inactive: -0.027
TUBGCP3 (UniProt Q96CW5)	inactive: -0.035	inactive: 0.021	inactive: -0.054	inactive: 0.044	inactive: 0.02	inactive: -0.039	inactive: 0.012	inactive: -0.044	inactive: -0.019	inactive: -0.054	inactive: -0.007	inactive: 0.018	inactive: 0.03	inactive: 0.045	inactive: -0.039	inactive: 0.003	inactive: -0.037	inactive: 0.004	inactive: 0.106	inactive: 0.028
UBE2T (UniProt Q9NPD8)	inactive: 0.015	inactive: 0.011	inactive: -0.027	inactive: -0.016	inactive: 0.002	inactive: -0.019	inactive: -0.05	inactive: -0.017	inactive: -0.004	inactive: -0.004	inactive: -0.007	inactive: 0.031	inactive: 0.009	inactive: 0.004	inactive: -0.054	inactive: -0.01	inactive: -0.009	inactive: 0.032	inactive: 0	inactive: 0.026
UBE2F isoform 2 (UniProt Q969M7)	inactive: 0.01	inactive: 0.05	inactive: 0.025	inactive: -0.041	inactive: 0.031	inactive: -0.018	inactive: -0.007	inactive: -0.049	inactive: 0.032	inactive: 0.042	inactive: 0.052	inactive: 0.054	inactive: -0.114	inactive: -0.019	inactive: 0.053	inactive: 0.054	inactive: 0.003	inactive: 0.079	inactive: 0.077	inactive: -0.023
UBLCP1 (UniProt Q8WVY7)	inactive: -0.009	inactive: 0.032	inactive: 0.034	inactive: 0.013	inactive: -0.031	inactive: 0.022	inactive: 0.088	inactive: 0.132	inactive: 0.034	inactive: -0.019	inactive: -0.043	inactive: 0.015	inactive: -0.009	inactive: 0.047	inactive: -0.034	inactive: 0.01	inactive: 0.025	inactive: -0.003	inactive: 0.007	inactive: 0.028
TUT4 (UniProt Q5TAX3)	inactive: -0.009	inactive: -0.048	inactive: -0.014	inactive: -0.062	inactive: -0.054	inactive: -0.004	inactive: -0.021	inactive: -0.029	inactive: 0.019	inactive: 0.023	inactive: 0.024	inactive: -0.013	inactive: 0.006	inactive: -0.07	inactive: 0.023	inactive: -0.003	inactive: -0.045	inactive: -0.165	inactive: -0.007	inactive: 0.041
UBE2E1 (UniProt P51965)	inactive: 0.023	inactive: 0.014	inactive: -0.159	inactive: 0.066	inactive: -0.018	inactive: -0.034	inactive: 0.151	inactive: 0.026	inactive: -0.071	inactive: -0.022	inactive: 0.034	inactive: 0.036	inactive: -0.088	inactive: 0.139	inactive: 0	inactive: -0.091	inactive: -0.059	inactive: -0.208	inactive: -0.085	inactive: 0.086
UBE2N (UniProt P61088)	inactive: 0.016	inactive: 0.036	inactive: 0.004	inactive: 0	inactive: 0.014	inactive: -0.009	inactive: 0.045	inactive: 0.009	inactive: 0.053	inactive: 0.018	inactive: 0.11	inactive: 0.004	inactive: 0.001	inactive: -0.015	inactive: -0.004	inactive: -0.06	inactive: 0.009	inactive: 0.053	inactive: 0.001	inactive: 0.019
TUBB3 (UniProt Q13509)	inactive: 0.025	inactive: -0.089	inactive: 0.016	inactive: -0.004	inactive: 0.001	inactive: -0.019	inactive: -0.025	inactive: 0.018	inactive: 0.03	inactive: 0.006	inactive: 0.003	inactive: 0.009	inactive: 0.022	inactive: -0.019	inactive: 0.025	inactive: 0.013	inactive: 0.005	inactive: -0.007	inactive: 0.015	inactive: 0.019
UBE2L6 (UniProt O14933)	inactive: 0.062	inactive: -0.03	inactive: 0.007	inactive: -0.003	inactive: -0.065	inactive: -0.001	inactive: 0.023	inactive: -0.014	inactive: 0.144	inactive: 0.047	inactive: 0.152	inactive: 0.012	inactive: -0.002	inactive: -0.041	inactive: -0.009	inactive: -0.033	inactive: -0.014	inactive: -0.019	inactive: -0.007	inactive: 0.002
UBE2NL (UniProt Q5JXB2)	inactive: -0.01	inactive: 0.097	inactive: 0.008	inactive: 0.008	inactive: -0.038	inactive: -0.002	inactive: 0.029	inactive: 0	inactive: 0.033	inactive: -0.003	inactive: 0.063	inactive: -0.009	inactive: -0.033	inactive: -0.002	inactive: 0.03	inactive: -0.03	inactive: -0.044	inactive: -0.021	inactive: -0.047	inactive: 0
TYMS (UniProt P04818)	inactive: 0.016	inactive: 0.041	inactive: 0.011	inactive: -0.032	inactive: 0.032	inactive: -0.026	inactive: 0.019	inactive: 0.035	inactive: -0.004	inactive: -0.008	inactive: -0.041	inactive: -0.017	inactive: 0.014	inactive: 0.029	inactive: 0.01	inactive: 0.001	inactive: 0.043	inactive: -0.005	inactive: -0.001	inactive: -0.022

Rewritten comma-delimited: part of the list above
Target,log2 fold change (erlotinib),log2 fold change [1],log2 fold change [2],log2 fold change [3],log2 fold change [4],log2 fold change [5],log2 fold change [6],log2 fold change [7],log2 fold change [8],log2 fold change (IRAK-1-4 Inhibitor I),log2 fold change (ibrutinib),log2 fold change [9],log2 fold change (ralimetinib),log2 fold change [10],log2 fold change [11],log2 fold change [12],log2 fold change [13],log2 fold change [14],log2 fold change [15],log2 fold change [16]
UBE2E1 (UniProt P51965),inactive: 0.023,inactive: 0.014,inactive: -0.159,inactive: 0.066,inactive: -0.018,inactive: -0.034,inactive: 0.151,inactive: 0.026,inactive: -0.071,inactive: -0.022,inactive: 0.034,inactive: 0.036,inactive: -0.088,inactive: 0.139,inactive: 0,inactive: -0.091,inactive: -0.059,inactive: -0.208,inactive: -0.085,inactive: 0.086
UBE2N (UniProt P61088),inactive: 0.016,inactive: 0.036,inactive: 0.004,inactive: 0,inactive: 0.014,inactive: -0.009,inactive: 0.045,inactive: 0.009,inactive: 0.053,inactive: 0.018,inactive: 0.11,inactive: 0.004,inactive: 0.001,inactive: -0.015,inactive: -0.004,inactive: -0.06,inactive: 0.009,inactive: 0.053,inactive: 0.001,inactive: 0.019
